Drawing on paper PMC11425246, this text covers binding for two molecules.

The chains behind the UniProt entries cited, without tags or fusion partners.
UniProt P35222: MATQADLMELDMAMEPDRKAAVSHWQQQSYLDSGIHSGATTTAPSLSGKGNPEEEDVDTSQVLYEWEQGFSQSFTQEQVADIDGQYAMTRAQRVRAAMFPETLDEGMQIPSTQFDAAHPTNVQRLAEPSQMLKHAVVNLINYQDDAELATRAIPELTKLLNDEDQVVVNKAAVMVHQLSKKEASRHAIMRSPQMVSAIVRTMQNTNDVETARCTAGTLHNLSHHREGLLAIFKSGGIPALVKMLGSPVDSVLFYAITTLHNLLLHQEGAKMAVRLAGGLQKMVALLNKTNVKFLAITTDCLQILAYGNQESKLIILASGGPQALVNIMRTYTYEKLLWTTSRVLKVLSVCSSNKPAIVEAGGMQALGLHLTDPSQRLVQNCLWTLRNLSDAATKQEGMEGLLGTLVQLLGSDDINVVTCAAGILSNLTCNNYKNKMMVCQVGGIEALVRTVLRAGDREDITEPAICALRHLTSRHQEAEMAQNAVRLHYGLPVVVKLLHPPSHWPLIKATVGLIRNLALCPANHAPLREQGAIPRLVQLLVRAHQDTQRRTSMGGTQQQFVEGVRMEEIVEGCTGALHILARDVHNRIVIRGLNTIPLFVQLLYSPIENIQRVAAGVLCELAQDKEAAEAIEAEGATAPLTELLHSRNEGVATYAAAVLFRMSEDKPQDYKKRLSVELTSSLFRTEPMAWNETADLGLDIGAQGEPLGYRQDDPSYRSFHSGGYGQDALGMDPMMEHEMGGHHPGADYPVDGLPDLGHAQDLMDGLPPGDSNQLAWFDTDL

Test [1] addresses T1, MEN1 (endogenous) (human (endogenous in PanNET cell lines)) (UniProt O00255).
T1 sequence: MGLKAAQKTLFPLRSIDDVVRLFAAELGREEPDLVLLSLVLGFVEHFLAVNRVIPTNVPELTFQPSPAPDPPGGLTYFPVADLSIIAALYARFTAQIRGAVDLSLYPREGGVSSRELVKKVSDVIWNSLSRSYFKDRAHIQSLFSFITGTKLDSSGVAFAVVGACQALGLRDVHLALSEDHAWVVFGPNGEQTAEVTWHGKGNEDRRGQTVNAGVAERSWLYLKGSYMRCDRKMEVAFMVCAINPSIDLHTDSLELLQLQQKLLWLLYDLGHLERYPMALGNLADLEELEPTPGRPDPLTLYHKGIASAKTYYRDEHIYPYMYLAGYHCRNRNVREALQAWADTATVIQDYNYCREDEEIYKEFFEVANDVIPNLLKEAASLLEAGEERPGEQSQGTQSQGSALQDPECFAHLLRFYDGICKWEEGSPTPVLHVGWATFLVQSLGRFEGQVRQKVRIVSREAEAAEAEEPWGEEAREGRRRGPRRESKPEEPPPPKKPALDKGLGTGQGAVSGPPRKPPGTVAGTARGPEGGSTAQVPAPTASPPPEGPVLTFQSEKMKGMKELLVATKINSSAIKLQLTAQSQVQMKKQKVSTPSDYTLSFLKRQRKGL
Put plainly: co-IP; two PanNET cell lines lysed and immunoprecipitated with anti‐β‐Catenin Ab or MEN1 Ab, blotted for MEN1 or β‐Catenin, IgG as negative control; endogenous proteins.

For test [2], the target named is β‐Catenin (endogenous) (human (endogenous in PanNET cell lines)) (UniProt P35222). The test is described as above.

No constants are given. Whether binding was seen depends on the method and setting. In cells and extracts the contact can be indirect. Some results given as binding are weak or reduced against the parent protein; the word gives no strength.

As for “β‐Catenin (endogenous) (from UniProt P35222 1-781)”, in test [1], the binding result was “binds”.

B1: MEN1 (endogenous) (protein, UniProt O00255 1-610)
chain: T1 sequence
B1: the binding result in test [2] is on record as “binds”.
